According to patent publication US20070197457A1:
Results are given in words; binding and its absence hold for the method and conditions named. Binding seen in cells or lysates may run through a third protein. A result given as binding can be weak or reduced; the word gives no strength.

Key:
Experiment in all cases: co-immunoprecipitation from transfected HEK293T cells, Western blot
[1] = biological target: SMAD6 (I-SMAD)
[2] = biological target: SMAD4 (Co-SMAD)
[3] = biological target: SMAD7 (I-SMAD), full-length
[4] = biological target: SMAD5 (wild-type R-SMAD)
[5] = biological target: SMAD2 (wild-type R-SMAD)
[6] = biological target: SMAD1 (wild-type, full-length R-SMAD)

binding [1]: binds
binding [2]: binds
binding [3]: binds
binding [4]: binds
binding [5]: binds
binding [6]: binds
B1: wild-type TAK1 (TAK1wt), full-length murine TGF-beta activated kinase 1, long splice form (enzyme, mouse, UniProt Q62073 1-579, looked up, not shown: small tags and cut ends)
chain: MSTASAASSSSSSSASEMIEAPSQVLNFEEIDYKEIEVEEVVGRGAFGVVCKAKWRAKDVAIKQIESESERKAFIVELRQLSRVNHPNIVKLYGACLNPVCLVMEYAEGGSLYNVLHGAEPLPYYTAAHAMSWCLQCSQGVAYLHSMQPKALIHRDLKPPNLLLVAGGTVLKICDFGTACDIQTHMTNNKGSAAWMAPEVFEGSNYSEKCDVFSWGIILWEVITRRKPFDEIGGPAFRIMWAVHNGTRPPLIKNLPKPIESLMTRCWSKDPSQRPSMEEIVKIMTHLMRYFPGADEPLQYPCQYSDEGQSNSATSTGSFMDIASTNTSNKSDTNMEQVPATNDTIKRLESKLLKNQAKQQSESGRLSLGASRGSSVESLPPTSEGKRMSADMSEIEARIVATAAYSKPKRGHRKTASFGNILDVPEIVISGNGQPRRRSIQDLTVTGTEPGQVSSRSSSPSVRMITTSGPTSEKPARSHPWTPDDSTDTNGSDNSIPMAYLTLDHQLQPLAPCPNSKESMAVFEQHCKMAQEYMKVQTEIALLLQRKQELVAELDQDEKDQQNTSRLVQEHKKLLDENKSLSTYYQQCKKQLEVIRSQQQKRQGTS
